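Assay of Toxoplasma gondii numbers, read through their beta-galactosidase reporter with a colour substrate. Concentration: 50 µM. The record gives no direction; the compounds picked for IC50 retests had high values, so higher reads as fewer parasites. Of about 18,000 compounds tested this way, about 170 (0.94%) reached 50% or more in at least one test.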

Each number is a percent effect as filed.
How 0% and 100% were set is not recorded. Most values in the screen are low, and negative values occur.
Compounds were drawn at random from those tested, without regard to their results.

| Compound | Percent Effect |
|---|---|
| `COCC(=O)NCCC(=O)N1CCCc2ccccc21` | 14.67% |
| `O=C(Nc1ccccc1C(=O)NCCO)c1ccco1` | 4.627% |
| `NCC(C(=O)N1CCC2(CCC2)C1)c1ccccc1` (stereo not drawn) | 20.55% |
| `CC(C)N(Cc1ccc(CO)o1)CC1CCC(=O)N1` (stereo not drawn) | -0.2283% |
| `Cc1cnc(CCN)nc1` | -4.39% |
| `CCOc1cc(CN)ccn1` | 4.965% |
| `CC(C)Cc1cc(C(=O)NCC(O)C(F)(F)F)[nH]n1` (stereo not drawn) | -5.184% |
| `CCC1c2ccsc2CCN1CC(=O)N(C)C` (stereo not drawn) | -4.563% |
| `Cc1ccc(NC(=O)N2CCCN(C)CC2)cc1` | -6.496% |
| `Cc1nc(N)sc1C(=O)N1C[C@H](C2CC2)[C@@H](N)C1` | 23.13% |
| `O=C(Cn1cc(Cl)cn1)N1CCC2(CCCNC2)C1` (stereo not drawn) | 1.933% |
| `O=C(Cn1c(=O)[nH]c(=O)c2ccccc21)N1CCCC1` | -4.706% |
| `CN(Cc1ccccc1)C(=O)CC1CCNC1` (stereo not drawn) | 1.677% |
| `Cc1ccc(NC(=O)NC(C)(CO)CO)cc1Br` | -7.476% |
| `CS(=O)(=O)N1CCC(COCc2ccccc2)C1` (stereo not drawn) | -9.575% |
| `COc1ccc(C2=NOC(C(=O)NC(C)C)C2)cc1` (stereo not drawn) | -8.277% |
| `CCCS(=O)(=O)NCC(C)N1CCOCC1` (stereo not drawn) | 2.385% |
| `Cc1nsc(N2CCN(CCS(C)(=O)=O)CC2)n1` | -0.9046% |
| `CCN(CC)C(=O)Nc1cc(OC)c(OC)c(OC)c1` | 14.23% |
| `CC(C)(C)C(=O)CNC(=O)C1(C#N)CCCCC1` | -4.208% |
| `O=C(NCC1CCS(=O)(=O)C1)c1sccc1OC(F)F` (stereo not drawn) | -2.75% |
| `CCC(NC(=O)Cn1nc(C)c(Cl)c1C)[C@H]1C[C@H](O)C1` (stereo partly drawn) | -9.318% |
| `CCc1nc(CCN)sc1C` | -7.089% |
| `COCC(=O)NC1(C(=O)NCC2CC2)CCCC1` | -5.672% |
| `CCCn1nc2n(c1=O)C(=O)N(c1ccc(Cl)cc1)C2` | 4.009% |
| `O=C(NCCc1noc(C(F)(F)F)n1)c1ccnnc1` | 8.655% |
| `CCC(CC)NC(=O)CCn1cncn1` | 23.47% |
| `COCC(N)c1ccc(C)o1` (stereo not drawn) | -4.742% |
| `COCCCNC(=O)CCn1c(=O)oc2ccccc21` | -1.309% |
| `COC(=O)CCCC(=O)N1CCCc2ccc(F)cc21` | -2.042% |
| `CC(=O)N1CCC(c2nc(C(C)(C)C)no2)C1` (stereo not drawn) | 10.18% |
| `CNC(=O)CN1CCCC(CO)(CC=C(C)C)C1` (stereo not drawn) | 3.213% |
| `Cc1csc(C(C)NC(=O)N[C@@H](C)C(=O)N(C)C)n1` (stereo partly drawn) | -17.61% |
| `CCOCc1nc(C(C)N)no1` (stereo not drawn) | 1.339% |
| `O=S(=O)(NCCO)N1CCNCC1` | 4.841% |
| `Nc1nnc(SCC(=O)NCCc2cccc(Cl)c2)s1` | 6.674% |
| `Cc1ccc(C(=O)NC2CC(C)(C)NC(C)(C)C2)cn1` | 3.087% |
| `CCN1CCN(Cc2nc(C3CCOC3)no2)CC1` (stereo not drawn) | -1.193% |
| `CCCNC(=O)N1CCN(CCC)CC1` | -47.68% |
| `CCCS(=O)(=O)NCc1ccc(S(N)(=O)=O)cc1` | -0.5257% |
| `CC(C)(CNc1nc2ccccc2o1)C(N)=O` | -16.76% |
| `CC(C(=O)NCc1ccc(Cl)s1)S(C)(=O)=O` (stereo not drawn) | -5.614% |
| `CN(C)C(=O)CNc1ccccc1-n1cccn1` | -0.02587% |
| `COC(=O)c1cccc2c1CCCN2C(=O)CSC` | -0.7744% |
| `CC(C)CC(O)CNC(=O)c1cc(F)ccc1F` (stereo not drawn) | -3.711% |
| `CC(C)(C)OC(=O)N1CCOCC1C#N` (stereo not drawn) | 4.882% |
| `CN(C)C1CCN(C(=O)CN(C)S(C)(=O)=O)CC1` | -9.436% |
| `C=C(C)COc1ccccc1S(C)(=O)=O` | 3.631% |
| `CC(C)(C)C[C@@H](N)C(=O)NCCCc1csc(N)n1` | -5.987% |
| `O=C(N[C@@H]1CCOC[C@H]1O)c1scc2c1OCCO2` | 35.17% |
| `N#Cc1cc(Br)ccc1NCCC(=O)N1CCOCC1` | -5.089% |
| `N#CCC(=O)C1CCCC1` | 38.46% |
| `O=S(=O)(NCc1ccncc1)c1c[nH]c2ncccc12` | -2.003% |
| `Cc1nc(CNC(CCO)C(C)C)no1` (stereo not drawn) | -13.05% |
| `CCOc1ccccc1CCC(N)=O` | 13.57% |
| `CCN(CC(=O)N(C)C1CC1)c1cccc(CO)c1` | 15.45% |
| `Cc1cc(CN)ccc1S(C)(=O)=O` | 4.557% |
| `COc1cc(CCC(=O)Nc2nnc[nH]2)cc(OC)c1` | 10.43% |

Some entries from above, unchanged:

| Compound | Percent Effect |
|---|---|
| `N#Cc1cc(Br)ccc1NCCC(=O)N1CCOCC1` | -5.089% |
| `Cc1nc(CNC(CCO)C(C)C)no1` (stereo not drawn) | -13.05% |
| `CCCS(=O)(=O)NCC(C)N1CCOCC1` (stereo not drawn) | 2.385% |
| `CCN1CCN(Cc2nc(C3CCOC3)no2)CC1` (stereo not drawn) | -1.193% |
| `COCCCNC(=O)CCn1c(=O)oc2ccccc21` | -1.309% |
| `NCC(C(=O)N1CCC2(CCC2)C1)c1ccccc1` (stereo not drawn) | 20.55% |
| `O=C(N[C@@H]1CCOC[C@H]1O)c1scc2c1OCCO2` | 35.17% |

From ChEMBL document CHEMBL3988442, “University of Dundee, Small-Polar-MMV Screening Library” (2021).